Assay results

Source: PubChem BioAssay AID687032 (Broad Institute, 2013).

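Cell survival of the PAX8-independent IOSE-T80 line, measured by CellTiterGlo ATP luminescence after four days of exposure. Percent change in signal scaled so neutral controls are 0 and the cytotoxic control is -100; more negative values mean greater loss of viability. Per repeat run, active means fitted AC50 at or below twice the top valid dose; inactive means a flat curve between -30% and 30%, an opposite effect, or AC50 above that limit; inconclusive means a flat -30% to -70% curve, a poor fit, or runs that disagree.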

Values are in %. All entries here are filed as inconclusive. These entries are mostly ones the record files as inconclusive; other results of the assay are not listed here.

| SMILES | condition | activity change (%) |
|---|---|---|
| `O=C(NC1=C(NC2CCS(=O)(=O)C2)C(=O)c2ccccc2C1=O)c1ccccc1` (stereo not drawn) | at 35 µM (top of the series) | 1.074 |
| `CCC(=O)N1CCN(c2ccc(NC(=O)c3ccc([N+](=O)[O-])o3)cc2Cl)CC1` | at 35 µM (top of the series) | 2.827 |
| `Cc1ccc(NC(=O)/C=C/c2ccc([N+](=O)[O-])s2)c(C)c1` | at 35 µM (top of the series) | -0.46 |
| `Cc1ccc(-c2csc(NC3OC(=O)c4ccccc43)n2)cc1` (stereo not drawn) | at 35 µM (top of the series) | 3.203 |
| `Cc1ccc(Cn2ccsc2=NC(=O)CCl)cc1` | at 35 µM (top of the series) | 12.14 |
| `COC1=CC(=O)c2c(ccc3ncnc(N)c23)C1=O` | at 35 µM (top of the series) | 3.709 |
| `CC(=O)N/C(=C\c1ccccc1)C(=O)OCC(=O)NC1CCCC1` | at 35 µM (top of the series) | 10.78 |
| `COc1ccc(N(Cc2cc3cc(OC)ccc3[nH]c2=O)S(=O)(=O)c2ccc(NC(C)=O)cc2)cc1` | at 35 µM (top of the series) | 6.789 |
| `CN1CCc2c(sc(NC(=O)c3ccc([N+](=O)[O-])o3)c2C(N)=O)C1` | at 35 µM (top of the series) | 14 |
| `COc1ccc(S(=O)(=O)N(C)C[C@H]2OCCCC[C@H](C)Oc3ccc(NS(=O)(=O)c4ccc(F)cc4)cc3C(=O)N([C@@H](C)CO)C[C@@H]2C)cc1` | at 35 µM (top of the series) | 9.877 |
| `CCCC(=O)NC1=C(Cl)C(=O)c2ccccc2C1=O` | at 35 µM (top of the series) | -26.74 |
| `O=C(Cc1ccc(F)cc1)OCC(=O)N1CCN(S(=O)(=O)c2ccc(Cl)cc2)CC1` | at 35 µM (top of the series) | 8.501 |
| `O=C(Nc1ccc(Cl)cc1)/C(=C/c1cccc(O)c1)c1nc2ccccc2s1` | at 35 µM (top of the series) | 13.93 |
| `C[C@@H]1CCCCO[C@H](CN(C)Cc2ccc(C(F)(F)F)cc2)[C@@H](C)CN([C@@H](C)CO)C(=O)c2cc(NC(=O)c3ccccc3)ccc2O1` | at 35 µM (top of the series) | 7.66 |
| `O=C(CCl)Nc1cc2[nH]c(=O)[nH]c2cc1Br` | at 35 µM (top of the series) | 18.28 |
| `COc1ccc(-c2cc(C(F)(F)F)nc(S(=O)(=O)CCCC(=O)Nc3cc(C)on3)n2)cc1OC` | at 35 µM (top of the series) | -13.75 |
| `CC(=NNc1cc(C)c2ccccc2n1)c1ccccn1` | at 35 µM (top of the series) | 2.001 |
| `Oc1c(Cl)cc(Cl)c(Cl)c1Cc1c(O)c(Cl)cc(Cl)c1Cl` | at 35 µM (top of the series) | -1.036 |
| `COc1ccc(/C=N/NC(=O)c2[nH]c3ccc(Br)cc3c2-c2ccccc2)cc1` | at 35 µM (top of the series) | 1.729 |
| `Cc1cccc(N(C)S(=O)(=O)c2ccc(-c3cnc(C4CC4)o3)cc2)c1` | at 35 µM (top of the series) | 3.966 |
| `Cc1cc(C2=NNC(=NC3CC3)SC2)c(C)n1-c1ccccc1F` | at 35 µM (top of the series) | 7.816 |
| `C[C@H]1CCCCO[C@@H](CN(C)Cc2ccc(C(F)(F)F)cc2)[C@@H](C)CN([C@@H](C)CO)C(=O)c2cc(NC(=O)c3ccccc3)ccc2O1` | at 35 µM (top of the series) | -53.8 |
| `CCS(=O)(=O)c1ncc(Cl)c(C(=O)Nc2ccc(S(=O)(=O)N3CCC(C)CC3)cc2)n1` | at 35 µM (top of the series) | 14.72 |
| `O=C(CCl)N=c1sccn1Cc1cccc2ccccc12` | at 35 µM (top of the series) | 4.33 |
| `CCCCCCCn1c2c(c(=N)c3c1CCC3)CCCC2` | at 35 µM (top of the series) | 11.87 |
| `COc1ccc(C(=O)CN2C(=O)c3ccccc3S2(=O)=O)cc1` | at 35 µM (top of the series) | 0.687 |
| `CC1CCCC=CC2CC(OC(=O)CN(C)C)CC2C(O)C=CC(=O)O1` (stereo not drawn) | at 35 µM (top of the series) | -2.626 |
| `O=C(Nc1cccc(C(F)(F)F)c1)Nc1ccc(N2CCCC2)c(S(=O)(=O)Nc2ccccc2Cl)c1` | at 35 µM (top of the series) | 2.792 |
| `C=C1C(=O)[C@@]23[C@H](O)C[C@@H]4C(C)(C)CC[C@H](O)[C@]4(C)[C@@H]2C[C@H](O)[C@@H]1[C@H]3O` | at 35 µM (top of the series) | 14.21 |
| `COc1cc(C=C2C(=O)C=CC2=O)ccc1O` | at 35 µM (top of the series) | -39.76 |
| `CCCCCCCCNC(=O)c1cnccn1` | at 35 µM (top of the series) | 9.865 |
| `CCCCC(=O)NC(c1ccccc1)c1ccc2cccnc2c1O` (stereo not drawn) | at 35 µM (top of the series) | 9.416 |
| `CCOC(=O)c1c(C)[nH]c2c1-c1ccccc1C(=O)C2=O` | at 35 µM (top of the series) | 8.192 |
| `Nc1ncnc2c(C3OC(CO)C(O)C3O)c[nH]c12` (stereo not drawn) | at 35 µM (top of the series) | 8.685 |
| `CCCC1=Nc2cc(C(=O)NCCCOCC)ccc2Sc2ccccc21` | at 35 µM (top of the series) | 3.669 |
| `COc1ccc(CN(C)C[C@H]2OCCCC[C@H](C)Oc3ccc(NC(=O)Nc4ccc(C(F)(F)F)cc4)cc3C(=O)N([C@@H](C)CO)C[C@H]2C)cc1` | at 35 µM (top of the series) | 7.49 |
| `Cc1cnc(NC(=O)c2ccc3c(c2)OCCO3)s1` | at 35 µM (top of the series) | 15.68 |
| `COc1cccc(/C=N/Nc2ccc([N+](=O)[O-])cn2)c1O` | at 35 µM (top of the series) | 0.475 |
| `CCCCCN=C(N)N/N=C/c1c[nH]c2ccc(OC)cc12` | at 35 µM (top of the series) | 12.44 |
| `COc1ccc2nc(C)cc(N/N=C/c3cccc(OC)c3O)c2c1` | at 35 µM (top of the series) | 0.433 |

For reference, 4 entries once more:

{"smiles": "CN1CCc2c(sc(NC(=O)c3ccc([N+](=O)[O-])o3)c2C(N)=O)C1", "condition": "at 35 µM (top of the series)", "activity change (%)": "14"}
{"smiles": "CCCC(=O)NC1=C(Cl)C(=O)c2ccccc2C1=O", "condition": "at 35 µM (top of the series)", "activity change (%)": "-26.74"}
{"smiles": "CCCC1=Nc2cc(C(=O)NCCCOCC)ccc2Sc2ccccc21", "condition": "at 35 µM (top of the series)", "activity change (%)": "3.669"}
{"smiles": "COc1ccc2nc(C)cc(N/N=C/c3cccc(OC)c3O)c2c1", "condition": "at 35 µM (top of the series)", "activity change (%)": "0.433"}